The record followed here is patent US20240226228A1, “ANTIMICROBIAL PEPTOID HAVING IMPROVED SELECTIVITY AND ANTIMICROBIAL COMPOSITION COMPRISING SAME” (priority 2021, published 2024).

Molecules are shown by their SMILES. Where a SMILES comes first, the peptide text is derived from it. [ ]: non-standard residue; d: D form. Gly(N(CH2)2(3-indolyl)) = O=C(O)CNCCc1c[nH]c2ccccc12; Nspe = C[C@H](NCC(=O)O)c1ccccc1; Nphe = O=C(O)CNCc1ccccc1; Nlys = NCCCCNCC(=O)O

One series relates to red blood cells / E. coli. In words: Analysis of selectivity of peptoid (HD10 divided by MIC against E. coli). As to conditions: HD10 divided by MIC against E. coli.
Molecule `C[C@@H](c1ccccc1)N(CC(N)=O)C(=O)CN(C(=O)CN(CCCCN)C(=O)CN(C(=O)CN(C(=O)CN(CCCCN)C(=O)CN(C(=O)CN(C(=O)CN(CCCCN)C(=O)CN(C(=O)CN(C(=O)CNCCCCN)[C@@H](C)c1ccccc1)[C@@H](C)c1ccccc1)[C@@H](C)c1ccccc1)[C@@H](C)c1ccccc1)[C@@H](C)c1ccccc1)[C@@H](C)c1ccccc1)[C@@H](C)c1ccccc1` [Peptoid 1, H-NLys-Nspe-Nspe-NLys-Nspe-Nspe-NLys-Nspe-Nspe-NLys-Nspe-Nspe-NH2, reference compound] (H-[Nlys][Nspe][Nspe][Nlys][Nspe][Nspe][Nlys][Nspe][Nspe][Nlys][Nspe][Nspe]-NH2) displayed a Selectivity of 7.4.

The series is the same for the next values; noted with them: Table 18; TFA salt vs counter ion-substituted peptoids.
For `C[C@@H](c1ccccc1)N(CC(N)=O)C(=O)CN(C(=O)CN(CCCCN)C(=O)CN(C(=O)CN(C(=O)CN(CCCCN)C(=O)CN(C(=O)CN(C(=O)CN(CCCCN)C(=O)CN(C(=O)CN(C(=O)CNCCCCN)[C@@H](C)c1ccccc1)[C@@H](C)c1ccccc1)[C@@H](C)c1ccccc1)[C@@H](C)c1ccccc1)[C@@H](C)c1ccccc1)[C@@H](C)c1ccccc1)[C@@H](C)c1ccccc1` [Peptoid 1-2, reference compound] (H-[Nlys][Nspe][Nspe][Nlys][Nspe][Nspe][Nlys][Nspe][Nspe][Nlys][Nspe][Nspe]-NH2), the Selectivity was 2.

Consider `C[C@@H](c1ccccc1)N(CC(=O)N(CCCCN)CC(=O)N(CCc1c[nH]c2ccccc12)CC(=O)N(CCc1c[nH]c2ccccc12)CC(N)=O)C(=O)CN(CCCCN)C(=O)CN(CCCCN)C(=O)CN(C(=O)CN(C(=O)CN(CCCCN)C(=O)CN(C(=O)CN(C(=O)CNCCCCN)[C@@H](C)c1ccccc1)[C@@H](C)c1ccccc1)[C@@H](C)c1ccccc1)[C@@H](C)c1ccccc1` [Peptoid 29-1] (H-[Nlys][Nspe][Nspe][Nlys][Nspe][Nspe][Nlys][Nlys][Nspe][Nlys][Gly(N(CH2)2(3-indolyl))][Gly(N(CH2)2(3-indolyl))]-NH2), for which the Selectivity is above 8.0.

Turning to `C[C@@H](c1ccccc1)N(CC(=O)N(CCCCN)CC(=O)N(CCc1c[nH]c2ccccc12)CC(=O)N(CCc1c[nH]c2ccccc12)CC(N)=O)C(=O)CN(CCCCN)C(=O)CN(CCCCN)C(=O)CN(C(=O)CN(C(=O)CN(CCCCN)C(=O)CN(C(=O)CN(C(=O)CNCCCCN)[C@@H](C)c1ccccc1)[C@@H](C)c1ccccc1)[C@@H](C)c1ccccc1)[C@@H](C)c1ccccc1` [Peptoid 29-2] (H-[Nlys][Nspe][Nspe][Nlys][Nspe][Nspe][Nlys][Nlys][Nspe][Nlys][Gly(N(CH2)2(3-indolyl))][Gly(N(CH2)2(3-indolyl))]-NH2), the Selectivity is above 15.9.

Regarding `C[C@@H](c1ccccc1)N(CC(=O)N(CCCCN)CC(=O)N(CCc1c[nH]c2ccccc12)CC(=O)N(CCc1c[nH]c2ccccc12)CC(N)=O)C(=O)CN(CCCCN)C(=O)CN(CCCCN)C(=O)CN(C(=O)CN(C(=O)CN(CCCCN)C(=O)CN(C(=O)CN(C(=O)CNCCCCN)[C@@H](C)c1ccccc1)[C@@H](C)c1ccccc1)[C@@H](C)c1ccccc1)[C@@H](C)c1ccccc1` [Peptoid 29, H-NLys-Nspe-Nspe-NLys-Nspe-Nspe-NLys-NLys-Nspe-NLys-NhTrp-NhTrp-NH2] (H-[Nlys][Nspe][Nspe][Nlys][Nspe][Nspe][Nlys][Nlys][Nspe][Nlys][Gly(N(CH2)2(3-indolyl))][Gly(N(CH2)2(3-indolyl))]-NH2), the Selectivity worked out at 14.1.

In the case of `C[C@@H](c1ccccc1)N(CC(N)=O)C(=O)CN(C(=O)CN(CCCCN)C(=O)CN(C(=O)CN(C(=O)CN(CCCCN)C(=O)CN(C(=O)CN(C(=O)CN(CCCCN)C(=O)CN(C(=O)CN(C(=O)CNCCCCN)[C@@H](C)c1ccccc1)[C@@H](C)c1ccccc1)[C@@H](C)c1ccccc1)[C@@H](C)c1ccccc1)[C@@H](C)c1ccccc1)[C@@H](C)c1ccccc1)[C@@H](C)c1ccccc1` [Peptoid 1-1, reference compound] (H-[Nlys][Nspe][Nspe][Nlys][Nspe][Nspe][Nlys][Nspe][Nspe][Nlys][Nspe][Nspe]-NH2), the Selectivity stood at 4.4.

As to `C[C@@H](c1ccccc1)N(CC(N)=O)C(=O)CN(C(=O)CN(CCCCN)C(=O)CN(C(=O)CN(CCc1c[nH]c2ccccc12)C(=O)CN(CCCCN)C(=O)CN(CCc1c[nH]c2ccccc12)C(=O)CN(C(=O)CN(CCCCN)C(=O)CN(C(=O)CN(C(=O)CNCCCCN)[C@@H](C)c1ccccc1)[C@@H](C)c1ccccc1)[C@@H](C)c1ccccc1)[C@@H](C)c1ccccc1)[C@@H](C)c1ccccc1` [Peptoid 15-1], the Selectivity is given as 8.

Consider `C[C@@H](c1ccccc1)N(CC(=O)N(CCCCN)CC(=O)N(CC(=O)N(CC(=O)N(CCCCN)CC(=O)N(CC(=O)N(CC(=O)N(CCCCN)CC(N)=O)[C@@H](C)c1ccccc1)[C@@H](C)c1ccccc1)[C@@H](C)c1ccccc1)[C@@H](C)c1ccccc1)C(=O)CN(C(=O)CN(CCCCN)C(=O)CN(CCc1c[nH]c2ccccc12)C(=O)CNCCc1c[nH]c2ccccc12)[C@@H](C)c1ccccc1` [Peptoid 37-2] (H-[Gly(N(CH2)2(3-indolyl))][Gly(N(CH2)2(3-indolyl))][Nlys][Nspe][Nspe][Nlys][Nspe][Nspe][Nlys][Nspe][Nspe][Nlys]-NH2), for which the Selectivity is on record as 2.

For `C[C@@H](c1ccccc1)N(CC(N)=O)C(=O)CN(C(=O)CN(CCCCN)C(=O)CN(C(=O)CN(C(=O)CN(CCCCN)C(=O)CN(C(=O)CN(C(=O)CN(CCCCN)C(=O)CN(C(=O)CN(C(=O)CNCCCCN)[C@@H](C)c1ccccc1)[C@@H](C)c1ccccc1)[C@@H](C)c1ccccc1)[C@@H](C)c1ccccc1)[C@@H](C)c1ccccc1)[C@@H](C)c1ccccc1)[C@@H](C)c1ccccc1` [Peptoid 1, H-NLys-Nspe-Nspe-NLys-Nspe-Nspe-NLys-Nspe-Nspe-NLys-Nspe-Nspe-NH2, reference compound] (H-[Nlys][Nspe][Nspe][Nlys][Nspe][Nspe][Nlys][Nspe][Nspe][Nlys][Nspe][Nspe]-NH2), the Selectivity is 2.5.

In the case of `C[C@@H](c1ccccc1)N(CC(N)=O)C(=O)CN(CCCCN)C(=O)CN(CCCCN)C(=O)CN(C(=O)CN(C(=O)CN(CCCCN)C(=O)CN(C(=O)CN(C(=O)CN(CCCCN)C(=O)CN(CCc1c[nH]c2ccccc12)C(=O)CN(CCc1c[nH]c2ccccc12)C(=O)CNCCCCN)[C@@H](C)c1ccccc1)[C@@H](C)c1ccccc1)[C@@H](C)c1ccccc1)[C@@H](C)c1ccccc1` [Peptoid 32-1], the Selectivity is listed as above 15.9.

The series is the same for the next values; noted with them: Tables 11-13.
Take `C[C@@H](c1ccccc1)N(CC(=O)N(CCCCN)CC(=O)N(CCc1c[nH]c2ccccc12)CC(=O)N(CCc1c[nH]c2ccccc12)CC(N)=O)C(=O)CN(CCCCN)C(=O)CN(CCCCN)C(=O)CN(Cc1ccccc1)C(=O)CN(Cc1ccccc1)C(=O)CN(CCCCN)C(=O)CN(C(=O)CN(C(=O)CNCCCCN)[C@@H](C)c1ccccc1)[C@@H](C)c1ccccc1` [Peptoid 40] (H-[Nlys][Nspe][Nspe][Nlys][Nphe][Nphe][Nlys][Nlys][Nspe][Nlys][Gly(N(CH2)2(3-indolyl))][Gly(N(CH2)2(3-indolyl))]-NH2): the “Selectivity [HD10/MIC (E. coli)]” value is reported as above 8.0.

Take `C[C@@H](c1ccccc1)N(CC(=O)N(CCCCN)CC(=O)N(CCCCN)CC(=O)N(CC(=O)N(CC(=O)N(CCCCN)CC(=O)N(CC(=O)N(CC(=O)N(CCCCN)CC(N)=O)[C@@H](C)c1ccccc1)[C@@H](C)c1ccccc1)[C@@H](C)c1ccccc1)[C@@H](C)c1ccccc1)C(=O)CN(CCCCN)C(=O)CN(CCc1c[nH]c2ccccc12)C(=O)CNCCc1c[nH]c2ccccc12` [Peptoid 38] (H-[Gly(N(CH2)2(3-indolyl))][Gly(N(CH2)2(3-indolyl))][Nlys][Nspe][Nlys][Nlys][Nspe][Nspe][Nlys][Nspe][Nspe][Nlys]-NH2): the “Selectivity [HD10/MIC (E. coli)]” value is recorded as above 8.0.

For `C[C@@H](c1ccccc1)N(CC(=O)N(CCCCN)CC(=O)N(CCc1c[nH]c2ccccc12)CC(=O)N(CCc1c[nH]c2ccccc12)CC(N)=O)C(=O)CN(CCCCN)C(=O)CN(CCCCN)C(=O)CN(C(=O)CN(C(=O)CN(CCCCN)C(=O)CN(Cc1ccccc1)C(=O)CN(Cc1ccccc1)C(=O)CNCCCCN)[C@@H](C)c1ccccc1)[C@@H](C)c1ccccc1` [Peptoid 41] (H-[Nlys][Nphe][Nphe][Nlys][Nspe][Nspe][Nlys][Nlys][Nspe][Nlys][Gly(N(CH2)2(3-indolyl))][Gly(N(CH2)2(3-indolyl))]-NH2), the “Selectivity [HD10/MIC (E. coli)]” value is recorded as above 4.0.

Regarding `C[C@@H](c1ccccc1)N(CC(=O)N(CCCCN)CC(=O)N(CCc1c[nH]c2ccccc12)CC(=O)N(CCc1c[nH]c2ccccc12)CC(N)=O)C(=O)CN(CCCCN)C(=O)CN(CCCCN)C(=O)CN(C(=O)CN(C(=O)CN(CCCCN)C(=O)CN(C(=O)CN(C(=O)CNCCCCN)[C@@H](C)c1ccccc1)[C@@H](C)c1ccccc1)[C@@H](C)c1ccccc1)[C@@H](C)c1ccccc1` [Peptoid 29, H-NLys-Nspe-Nspe-NLys-Nspe-Nspe-NLys-NLys-Nspe-NLys-NhTrp-NhTrp-NH2] (H-[Nlys][Nspe][Nspe][Nlys][Nspe][Nspe][Nlys][Nlys][Nspe][Nlys][Gly(N(CH2)2(3-indolyl))][Gly(N(CH2)2(3-indolyl))]-NH2), the “Selectivity [HD10/MIC (E. coli)]” value is above 15.9.

With `C[C@@H](c1ccccc1)N(CC(=O)N(CCCCN)CC(=O)N(CC(=O)N(CC(=O)N(CCCCN)CC(=O)N(CCc1c[nH]c2ccccc12)CC(=O)N(CCc1c[nH]c2ccccc12)CC(N)=O)[C@@H](C)c1ccccc1)[C@@H](C)c1ccccc1)C(=O)CN(CCCCN)C(=O)CN(CCCCN)C(=O)CN(C(=O)CN(C(=O)CNCCCCN)[C@@H](C)c1ccccc1)[C@@H](C)c1ccccc1` [Peptoid 30] (H-[Nlys][Nspe][Nspe][Nlys][Nlys][Nspe][Nlys][Nspe][Nspe][Nlys][Gly(N(CH2)2(3-indolyl))][Gly(N(CH2)2(3-indolyl))]-NH2), the “Selectivity [HD10/MIC (E. coli)]” value is above 8.0.

In the case of `C[C@@H](c1ccccc1)N(CC(=O)N(CCCCN)CC(=O)N(CCCCN)CC(=O)N(CCc1c[nH]c2ccccc12)CC(=O)N(CCc1c[nH]c2ccccc12)CC(N)=O)C(=O)CN(CCCCN)C(=O)CN(C(=O)CN(C(=O)CN(CCCCN)C(=O)CN(C(=O)CN(C(=O)CNCCCCN)[C@@H](C)c1ccccc1)[C@@H](C)c1ccccc1)[C@@H](C)c1ccccc1)[C@@H](C)c1ccccc1` [Peptoid 28] (H-[Nlys][Nspe][Nspe][Nlys][Nspe][Nspe][Nlys][Nspe][Nlys][Nlys][Gly(N(CH2)2(3-indolyl))][Gly(N(CH2)2(3-indolyl))]-NH2), the “Selectivity [HD10/MIC (E. coli)]” value is reported as above 8.0.

For the molecule `C[C@@H](c1ccccc1)N(CC(N)=O)C(=O)CN(C(=O)CN(CCCCN)C(=O)CN(C(=O)CN(CCCCN)C(=O)CN(CCCCN)C(=O)CN(C(=O)CN(C(=O)CN(CCCCN)C(=O)CN(CCc1c[nH]c2ccccc12)C(=O)CN(CCc1c[nH]c2ccccc12)C(=O)CNCCCCN)[C@@H](C)c1ccccc1)[C@@H](C)c1ccccc1)[C@@H](C)c1ccccc1)[C@@H](C)c1ccccc1` [Peptoid 33], the “Selectivity [HD10/MIC (E. coli)]” value is recorded as above 8.0.

`C[C@@H](c1ccccc1)N(CC(N)=O)C(=O)CN(C(=O)CN(CCCCN)C(=O)CN(C(=O)CN(C(=O)CN(CCCCN)C(=O)CN(C(=O)CN(C(=O)CN(CCCCN)C(=O)CN(C(=O)CN(C(=O)CNCCCCN)[C@@H](C)c1ccccc1)[C@@H](C)c1ccccc1)[C@@H](C)c1ccccc1)[C@@H](C)c1ccccc1)[C@@H](C)c1ccccc1)[C@@H](C)c1ccccc1)[C@@H](C)c1ccccc1` [Peptoid 1, H-NLys-Nspe-Nspe-NLys-Nspe-Nspe-NLys-Nspe-Nspe-NLys-Nspe-Nspe-NH2, reference compound] (H-[Nlys][Nspe][Nspe][Nlys][Nspe][Nspe][Nlys][Nspe][Nspe][Nlys][Nspe][Nspe]-NH2): the “Selectivity [HD10/MIC (E. coli)]” value stood at 1.3.

For `C[C@@H](c1ccccc1)N(CC(N)=O)C(=O)CN(CCCCN)C(=O)CN(CCCCN)C(=O)CN(C(=O)CN(C(=O)CN(CCCCN)C(=O)CN(C(=O)CN(C(=O)CN(CCCCN)C(=O)CN(Cc1ccccc1)C(=O)CN(Cc1ccccc1)C(=O)CNCCCCN)[C@@H](C)c1ccccc1)[C@@H](C)c1ccccc1)[C@@H](C)c1ccccc1)[C@@H](C)c1ccccc1` [Peptoid 47], the “Selectivity [HD10/MIC (E. coli)]” value is reported as above 4.0.
